Results from patent US20170202782A1 (Abraxis BioScience, LLC, priority 2014, published 2017).
At least one structure is not confirmed: it was looked up by name or label, or the drawing left a doubt.

System: human pancreatic carcinoma MiaPACA2 xenograft tumors
Assay: CIVO arrayed microinjection into xenografted MiaPACA2 tumors, immunofluorescence (CC3, pHH3)
Details: solid tumor models; combination with Abraxane (summary statement)

In the case of `CC1(C)CCC(c2ccc(Cl)cc2)=C(CN2CCN(c3ccc(C(=O)NS(=O)(=O)c4ccc(N[C@H](CCN5CCOCC5)CSc5ccccc5)c(S(=O)(=O)C(F)(F)F)c4)cc3)CC2)C1` [ABT-263], the “synergy with Abraxane in inducing tumor cell death” value is reported as “significant synergy”.
